Measured data: PubChem BioAssay AID1259308 (NCATS, 2017)
Here is an unselected part of about 59,000 deposited reagents. About 1,510 of all reagents (2.6%) count as active. 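Calls use total luciferase alone and ignore viability, so some active siRNAs may act by altering cell number.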 A number with no mark means an inactive call. Reagents against one gene are numbered here. Reagent sequences are not shown.

Purpose: 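Genes whose loss raises luciferase production in HEK293 cells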 (primary screen)
System: human HEK293 embryonic kidney cells stably expressing firefly luciferase (HEK-CMV-Luc2-Hygro)
Reagents: single siRNA against human genes, 0.8 pmol siRNA per well
Duration: 72 h
Detection: 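Luciferase light (ONE-Glo) measured on one replicate plate set and viability (CellTiter-Glo) on the other, scaled to a negative control siRNA, with robust z-scores and luciferase per cell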
Scale: total luciferase, z-score and total luciferase, % of control: higher = more reporter protein produced; luciferase per cell, z-score: higher = more reporter output per viable cell; viable cells, % of control: higher = more viable cells
Call rule: 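Active when the median/MAD z-score for overall luciferase is greater than 3; a gene was taken forward for validation with new siRNAs if at least two of its three siRNAs passed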
Calls: active = raised luciferase; inactive = no rise

gene | reagent | total luciferase, z-score | total luciferase, % of control | luciferase per cell, z-score | viable cells, % of control
LPCAT3 | 1 | 2.4 | 130 | 1.7 | 92.7
LPCAT3 | 2 | -1.2 | 58 | -1.27 | 90.5
LPCAT3 | 3 | 0.771 | 97.2 | 1.18 | 79.6
H4C8 | 1 | 1.23 | 106 | 0.963 | 92.3
H4C8 | 2 | 1.05 | 103 | 0.983 | 88.7
H4C8 | 3 | 0.094 | 83.8 | 0.394 | 84.4
PHF21A | 1 | 1.52 | 112 | 1.32 | 88.5
PHF21A | 2 | 0.792 | 97.6 | 0.0723 | 107
PHF21A | 3 | 0.918 | 100 | 1.25 | 80.6
NUDT16L1 | 1 | -0.394 | 74 | -0.0354 | 83.5
NUDT16L1 | 2 | -0.556 | 70.8 | -0.324 | 86.2
NUDT16L1 | 3 | 0.0317 | 82.5 | 0.0684 | 90.6
SERPINB10 | 1 | -0.588 | 70.2 | -0.625 | 92.5
SERPINB10 | 2 | -1.68 | 48.4 | -2.3 | 99.1
SERPINB10 | 3 | -0.651 | 68.9 | -1.22 | 106
LAGE3 | 1 | -1.09 | 60.3 | -1.47 | 99.3
LAGE3 | 2 | 0.197 | 85.8 | 1.8 | 59.7
LAGE3 | 3 | -0.0715 | 80.5 | -0.462 | 102
INSL3 | 1 | 1.03 | 102 | 0.746 | 94
INSL3 | 2 | 1.44 | 111 | 1.01 | 94.8
INSL3 | 3 | 0.687 | 95.6 | 1.29 | 76.1
LRRIQ1 | 1 | -0.438 | 73.2 | -0.598 | 95.7
LRRIQ1 | 2 | 0.264 | 87.1 | 0.297 | 90.1
LRRIQ1 | 3 | -1.23 | 57.5 | -1.08 | 85.5
LRRK2 | 1 | 0.66 | 95 | 0.45 | 94.3
LRRK2 | 2 | -1.8 | 46.1 | -1.34 | 73.5
LRRK2 | 3 | 0.466 | 91.2 | 1.37 | 71.1
PSORS1C2 | 1 | 0.196 | 85.8 | 1.28 | 68.4
PSORS1C2 | 2 | 0.0373 | 82.6 | 0.387 | 83.4
PSORS1C2 | 3 | -0.395 | 74 | 0.921 | 64.9
NCCRP1 | 1 | -0.425 | 73.4 | 0.731 | 67.7
NCCRP1 | 2 | 0.761 | 97 | 0.574 | 93.2
NCCRP1 | 3 | 0.127 | 84.4 | 0.326 | 86.6
IFT88 | 1 | 0.388 | 89.6 | 0.758 | 82
IFT88 | 2 | -0.0117 | 81.7 | -0.74 | 111
IFT88 | 3 | 0.0698 | 83.3 | -0.481 | 106
FAM47A | 1 | -0.956 | 62.9 | -0.986 | 91.1
FAM47A | 2 | -1.88 | 44.4 | -1.8 | 79.8
FAM47A | 3 | 0.595 | 93.7 | 0.558 | 90.4
KAT6B | 1 | 0.442 | 90.7 | 1.82 | 62.7
KAT6B | 2 | 0.221 | 86.3 | -0.364 | 106
KAT6B | 3 | -0.457 | 72.8 | -1.01 | 106
ECHDC1 | 1 | 1.03 | 102 | 0.193 | 109
ECHDC1 | 2 | 0.874 | 99.3 | -0.0184 | 111
ECHDC1 | 3 | 0.576 | 93.3 | 0.39 | 94.1
ABHD14A | 1 | 4.84 (active) | 178 | 3.93 | 70.8
ABHD14A | 2 | -0.0968 | 80 | -0.521 | 102
ABHD14A | 3 | -0.631 | 69.3 | -0.669 | 92.4
LRP4 | 1 | 0.658 | 95 | 0.88 | 84.2
LRP4 | 2 | 0.784 | 97.5 | 1.22 | 79
LRP4 | 3 | 1.43 | 110 | 1.94 | 74
TRHR | 1 | 0.76 | 97 | 0.96 | 84.2
TRHR | 2 | 0.0878 | 83.6 | 0.607 | 79.6
TRHR | 3 | -0.736 | 67.2 | -0.951 | 96.5
HERC6 | 1 | -1.91 | 43.9 | -1.49 | 72.6
HERC6 | 2 | -0.267 | 76.6 | -0.146 | 88.9
HERC6 | 3 | -0.779 | 66.4 | -0.421 | 82.9
BMI1 | 1 | -0.502 | 71.9 | -0.493 | 91.5
BMI1 | 2 | 0.594 | 93.7 | 1.7 | 66.9
BMI1 | 3 | -0.282 | 76.3 | -0.27 | 91.5
ZBTB7C | 1 | -0.899 | 64 | -0.7 | 86
ZBTB7C | 2 | 0.478 | 91.4 | 0.127 | 98.8
ZBTB7C | 3 | 2.54 | 132 | 2.86 | 69.7
ARHGEF9 | 1 | -0.964 | 62.7 | -0.822 | 87
ARHGEF9 | 2 | 0.623 | 94.3 | -0.141 | 109
ARHGEF9 | 3 | -1.34 | 55.2 | -0.867 | 77.5
BRD3 | 1 | -0.692 | 68.1 | -1.42 | 111
BRD3 | 2 | -0.131 | 79.3 | -0.46 | 100
BRD3 | 3 | 0.656 | 94.9 | 0.399 | 95.5
GRK4 | 1 | -0.892 | 64.2 | -1.14 | 96.9
GRK4 | 2 | 0.435 | 90.5 | -0.342 | 111
GRK4 | 3 | 1.5 | 112 | 0.95 | 97.1
PRKAR1B | 1 | 0.448 | 90.8 | -0.0476 | 103
PRKAR1B | 2 | -0.428 | 73.4 | -0.796 | 101
PRKAR1B | 3 | 1.87 | 119 | 1.23 | 96.3

In a second layout: results already given.
{"gene": "SERPINB10", "reagent": 2, "total luciferase, z-score": -1.68, "total luciferase, % of control": 48.4, "luciferase per cell, z-score": -2.3, "viable cells, % of control": 99.1}
{"gene": "SERPINB10", "reagent": 3, "total luciferase, z-score": -0.651, "total luciferase, % of control": 68.9, "luciferase per cell, z-score": -1.22, "viable cells, % of control": 106}
{"gene": "LAGE3", "reagent": 1, "total luciferase, z-score": -1.09, "total luciferase, % of control": 60.3, "luciferase per cell, z-score": -1.47, "viable cells, % of control": 99.3}
{"gene": "LAGE3", "reagent": 2, "total luciferase, z-score": 0.197, "total luciferase, % of control": 85.8, "luciferase per cell, z-score": 1.8, "viable cells, % of control": 59.7}
{"gene": "LAGE3", "reagent": 3, "total luciferase, z-score": -0.0715, "total luciferase, % of control": 80.5, "luciferase per cell, z-score": -0.462, "viable cells, % of control": 102}
{"gene": "INSL3", "reagent": 1, "total luciferase, z-score": 1.03, "total luciferase, % of control": 102, "luciferase per cell, z-score": 0.746, "viable cells, % of control": 94}
{"gene": "INSL3", "reagent": 2, "total luciferase, z-score": 1.44, "total luciferase, % of control": 111, "luciferase per cell, z-score": 1.01, "viable cells, % of control": 94.8}
{"gene": "INSL3", "reagent": 3, "total luciferase, z-score": 0.687, "total luciferase, % of control": 95.6, "luciferase per cell, z-score": 1.29, "viable cells, % of control": 76.1}
{"gene": "LRRIQ1", "reagent": 1, "total luciferase, z-score": -0.438, "total luciferase, % of control": 73.2, "luciferase per cell, z-score": -0.598, "viable cells, % of control": 95.7}
{"gene": "LRRIQ1", "reagent": 2, "total luciferase, z-score": 0.264, "total luciferase, % of control": 87.1, "luciferase per cell, z-score": 0.297, "viable cells, % of control": 90.1}
{"gene": "LRRIQ1", "reagent": 3, "total luciferase, z-score": -1.23, "total luciferase, % of control": 57.5, "luciferase per cell, z-score": -1.08, "viable cells, % of control": 85.5}
